Where a name gives a salt, the structure may show the parent alone.
Tested on: PGD2
Assay: PGD2 metabolites in plasma and urine
Assay type: in vivo, human
Procedure: The potential importance of PGD2 in the flushing response was assessed by measuring metabolites of PGD2 in plasma and urine. PGF2α, 9α was measured in plasma samples drawn immediately before dosing and at 0.5, 1, 2, 3, 4, 6, 8, 10 and 12 h on days 1 and 4. The concentrations of PGF2α, 9α were determined by gas chromatography-mass spectrometry (GC-MS) using d4-8-iso-PGF2α as internal standard. The major urinary metabolite of PGD2 is prostaglandin D-M (PGD-M). The levels of PGD-M in urine were assayed by GC-MS of pooled urine samples collected for 8 h on day −1, and between 0 h and 8 h on days 1 and 4. ^18O-labeled PGD-M was used as internal standard.

## COC(=O)/C=C/C(=O)OC [DMF, dimethyl fumarate]
DMF alone, day 1, around 2-4 h
  Plasma concentration of 9α, 11β-PGF2α: elevated
DMF alone, day 4
  Plasma concentration of 9α, 11β-PGF2α: no major elevations
DMF plus aspirin
  urine PGD-M level: not seen
DMF plus aspirin, day 1 and day 4
  Plasma concentration of 9α, 11β-PGF2α: no elevation

From patent publication US20130216615A1, “Pharmaceutical Compositions Containing Dimethyl Fumarate” (priority 2012, published 2013)
